Laboratory results reported in publication PMC5794780, “ATP-dependent conformational change in ABC-ATPase RecF serves as a switch in DNA repair” (Scientific Reports, 2018).

Tests used:
[1] = biological target: T1, TTERecF monomer (ATP-free) (Thermoanaerobacter tengcongensis MB4) (UniProt Q8RDL3); assay: BLI; details: no ATP, kd 8.46E-02 s-1; BLI: 20 mM Tris-HCl pH 7.0, 200 mM NaCl, 0.05% Tween 20, 25 C; biotinylated DNA on streptavidin sensors; no Mg2+ stated; recombinant protein; protein details: N-terminal His6; label: 5' biotin (strand 1)
T1 sequence (looked up, limits assumed): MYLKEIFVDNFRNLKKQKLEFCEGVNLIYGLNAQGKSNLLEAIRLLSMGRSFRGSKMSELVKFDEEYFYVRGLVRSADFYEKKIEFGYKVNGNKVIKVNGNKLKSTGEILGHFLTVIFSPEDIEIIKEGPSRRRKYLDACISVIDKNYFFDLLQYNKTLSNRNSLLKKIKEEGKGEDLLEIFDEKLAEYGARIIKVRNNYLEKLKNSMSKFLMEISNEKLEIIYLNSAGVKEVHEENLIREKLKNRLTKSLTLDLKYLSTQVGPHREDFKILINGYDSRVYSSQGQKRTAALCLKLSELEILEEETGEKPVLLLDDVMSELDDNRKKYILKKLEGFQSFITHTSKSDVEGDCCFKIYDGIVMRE

[2] = biological target: T2, TTERecF-ATP dimer (Thermoanaerobacter tengcongensis MB4) (UniProt Q8RDL3); assay: BLI; details: ATP (1 mM in preincubation), kd 7.12E-04 s-1, text says almost 1000x stronger than monomer, values give about 260x; BLI: 20 mM Tris-HCl pH 7.0, 200 mM NaCl, 0.05% Tween 20, 25 C; biotinylated DNA on streptavidin sensors; no Mg2+ stated; recombinant protein; protein details: N-terminal His6; label: 5' biotin (strand 1)
T2 sequence (looked up, limits assumed): T1 sequence (looked up, limits assumed)

ACCTTATGGAAAGCATCGTAG (double strand) [21mer dsDNA]
Kd [1]: 1630 nM | Kd [2]: 6.2 nM

Construct, isoform or probe ends are uncertain for at least one entry. Where a protein sequence is shown, tags need not be part of it.
